Source: patent publication US20120058948A1, “Collagen peptides as immune modulators” (priority 2006, published 2012)
Some entries share one result that the patent states for a list of compounds.

Test system: human peripheral blood monocytes (HPBMs)
Test: IL-1β production (ELISA) from HPBMs incubated with peptide alone
Type: cell-based
Conditions: peptide 10^−7 M, no LPS, sampled every four hours for 28 hours, FIG. 2

POGPOGPOGAOGLRGGAGPAGPOGPOGPOG [peptide p3, models a relatively imino-poor but relatively rigid collagen segment near a gelatinase scissile bond, flanked by POG triplets]
effect on IL-1β production when incubated with HPBMs alone: no significant affect
